This is an account of results in paper PMC12411639.

By UniProt entry, the sequences of proteins in these tests, tags left out. Residues count along the entry.
UniProt O95881, residues 27-172: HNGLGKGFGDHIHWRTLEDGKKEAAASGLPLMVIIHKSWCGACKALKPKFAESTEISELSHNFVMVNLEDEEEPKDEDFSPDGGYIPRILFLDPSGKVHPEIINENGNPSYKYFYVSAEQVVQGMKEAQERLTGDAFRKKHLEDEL
UniProt P45974: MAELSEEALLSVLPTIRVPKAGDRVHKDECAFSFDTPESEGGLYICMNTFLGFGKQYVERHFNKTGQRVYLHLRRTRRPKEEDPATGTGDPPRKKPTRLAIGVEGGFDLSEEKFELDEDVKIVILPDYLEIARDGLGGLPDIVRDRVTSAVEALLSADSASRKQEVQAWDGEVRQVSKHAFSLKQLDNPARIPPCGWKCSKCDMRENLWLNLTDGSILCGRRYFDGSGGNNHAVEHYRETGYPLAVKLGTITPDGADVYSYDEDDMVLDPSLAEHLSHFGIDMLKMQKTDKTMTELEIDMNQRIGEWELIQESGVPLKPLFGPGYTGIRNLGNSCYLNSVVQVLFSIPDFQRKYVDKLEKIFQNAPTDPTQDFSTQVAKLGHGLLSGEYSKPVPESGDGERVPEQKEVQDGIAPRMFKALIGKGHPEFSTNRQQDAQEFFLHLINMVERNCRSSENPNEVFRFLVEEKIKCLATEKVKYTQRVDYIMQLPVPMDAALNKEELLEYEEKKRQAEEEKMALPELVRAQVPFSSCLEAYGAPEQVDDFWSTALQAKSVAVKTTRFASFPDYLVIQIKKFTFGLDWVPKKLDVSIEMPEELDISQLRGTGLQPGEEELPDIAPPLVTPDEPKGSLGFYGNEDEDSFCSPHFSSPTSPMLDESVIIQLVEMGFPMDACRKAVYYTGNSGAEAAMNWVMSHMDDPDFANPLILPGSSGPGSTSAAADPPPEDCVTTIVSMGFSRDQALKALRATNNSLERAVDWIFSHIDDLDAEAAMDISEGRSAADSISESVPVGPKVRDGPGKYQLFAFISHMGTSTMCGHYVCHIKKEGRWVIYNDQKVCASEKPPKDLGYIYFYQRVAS
UniProt P01106: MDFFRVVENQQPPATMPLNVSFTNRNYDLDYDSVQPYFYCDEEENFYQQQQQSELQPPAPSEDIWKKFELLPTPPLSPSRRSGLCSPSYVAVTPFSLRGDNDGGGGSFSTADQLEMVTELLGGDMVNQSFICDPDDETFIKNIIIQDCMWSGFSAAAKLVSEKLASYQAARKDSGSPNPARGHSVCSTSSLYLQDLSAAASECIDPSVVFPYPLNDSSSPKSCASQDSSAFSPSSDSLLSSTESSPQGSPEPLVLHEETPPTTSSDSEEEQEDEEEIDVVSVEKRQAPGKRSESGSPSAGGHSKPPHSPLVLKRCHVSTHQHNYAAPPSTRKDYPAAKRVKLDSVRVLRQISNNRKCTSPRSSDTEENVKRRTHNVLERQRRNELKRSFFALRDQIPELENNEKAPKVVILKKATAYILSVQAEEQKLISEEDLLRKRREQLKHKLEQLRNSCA

No constants are given. Whether binding was seen depends on the method and setting. In cells and extracts the contact can be indirect. Some binding calls cover weakened binding; strength is not graded here.

Assay [1] concerns the target thioredoxin domain-containing protein 12 (TXNDC12), endogenous in HEK-293 cells (human (endogenous in HEK-293)) (UniProt O95881). Briefly: co-IP; endogenous proteins in HEK-293 cells; RIPA lysis, primary antibody overnight at 4 °C, magnetic beads 6 h at 4 °C, western blot.
In a further assay the target is HA-USP5 (UniProt P45974). The experiment in a line: co-IP; exogenous Flag-TXNDC12 and HA-USP5 in HNSCC cells, both orientations; RIPA lysis, primary antibody overnight at 4 °C, magnetic beads, western blot.
Assay [2] has as its target USP5 in SCC-1 and SCC-23 cells (human (endogenous in SCC-1 and SCC-23)) (UniProt P45974). Briefly: co-IP; SCC-1 and SCC-23 cells with TXNDC12 depletion (shTXNDC12) or TXNDC12 overexpression and their controls; RIPA lysis, primary antibody overnight at 4 °C, magnetic beads, western blot.
Another assay addresses Flag-TXNDC12 (UniProt O95881). Briefly: co-IP; exogenous Flag-TXNDC12 and HA-USP5 in HNSCC cells, both orientations; RIPA lysis, primary antibody overnight at 4 °C, magnetic beads, western blot.

On to “USP5, endogenous in HEK-293 cells (from UniProt P45974 1-858) (enzyme)”, for which, in assay [1], the binding result was “binds”.
With “Flag-TXNDC12 (from UniProt O95881 27-172)”, in the assay with HA-USP5, the binding result is on record as “binds”.
Consider “c-Myc in SCC-1 and SCC-23 cells (from UniProt P01106 1-454)”, for which the binding result in assay [2] is given as “binds”.
Consider “HA-USP5 (from UniProt P45974 1-858) (enzyme)”, for which the binding entry with Flag-TXNDC12 is “binds”.
